Test system: BAF complex subunits and histone proteins
Assay: Mass spectrometry proteomics of purified HA-SS18 WT and HA-SS18-SSX1 complexes (Tables 5A-5E)
Set-up: species or system human
Details: HEK-293T
[1] = HA-SS18SSX1_NE_peptides (Table 5B), HA-SS18-SSX1 BAF complex purification from soluble nuclear extract
[2] = HA-SS18WT_NE_peptides: proteins co-purified with HA-SS18 WT from nuclear extract (NE)
[3] = HA-SS18WT_NE_peptides: HA-SS18 WT complexes purified from nuclear extract (NE), label = protein identified (Gene Symbol)

| Molecule | Total (peptides) [1] | Unique (peptides) [1] | Total (peptides) [2] | Unique (peptides) [2] | Total (peptides) [3] | Unique (peptides) [3] |
| --- | --- | --- | --- | --- | --- | --- |
| DNA2 (protein, UniProt P51530 1-1060, looked up) DNA replication ATP-dependent …: MEQLNELELLMEKSFWEEAELPAELFQKKVVASFPRTVLSTGMDNRYLVLAVNTVQNKEGNCEKRLVITASQSLENKELCILRNDWCSVPVEPGDIIHLEGDCTSDTWIIDKDFGYLILYPDMLISGTSIASSIRCMRRAVLSETFRSSDPATRQMLIGTVLHEVFQKAINNSFAPEKLQELAFQTIQEIRHLKEMYRLNLSQDEIKQEVEDYLPSFCKWAGDFMHKNTSTDFPQMQLSLPSDNSKDNSTCNIEVVKPMDIEESIWSPRFGLKGKIDVTVGVKIHRGYKTKYKIMPLELKTGKESNSIEHRSQVVLYTLLSQERRADPEAGLLLYLKTGQMYPVPANHLDKRELLKLRNQMAFSLFHRISKSATRQKTQLASLPQIIEEEKTCKYCSQIGNCALYSRAVEQQMDCSSVPIVMLPKIEEETQHLKQTHLEYFSLWCLMLTLESQSKDNKKNHQNIWLMPASEMEKSGSCIGNLIRMEHVKIVCDGQYLHNFQCKHGAIPVTNLMAGDRVIVSGEERSLFALSRGYVKEINMTTVTCLLDRNLSVLPESTLFRLDQEEKNCDIDTPLGNLSKLMENTFVSKKLRDLIIDFREPQFISYLSSVLPHDAKDTVACILKGLNKPQRQAMKKVLLSKDYTLIVGMPGTGKTTTICTLVRILYACGFSVLLTSYTHSAVDNILLKLAKFKIGFLRLGQIQKVHPAIQQFTEQEICRSKSIKSLALLEELYNSQLIVATTCMGINHPIFSRKIFDFCIVDEASQISQPICLGPLFFSRRFVLVGDHQQLPPLVLNREARALGMSESLFKRLEQNKSAVVQLTVQYRMNSKIMSLSNKLTYEGKLECGSDKVANAVINLRHFKDVKLELEFYADYSDNPWLMGVFEPNNPVCFLNTDKVPAPEQVEKGGVSNVTEAKLIVFLTSIFVKAGCSPSDIGIIAPYRQQLKIINDLLARSIGMVEVNTVDKYQGRDKSIVLVSFVRSNKDGTVGELLKDWRRLNVAITRAKHKLILLGCVPSLNCYPPLEKLLNHLNSEKLIIDLPSREHESLCHILGDFQRE | 1 | 1 | – | – | – | – |
| CEPT1 (protein, UniProt Q9Y6K0 1-416, looked up) Choline/ethanolaminephosphotra …: MSGHRSTRKRCGDSHPESPVGFGHMSTTGCVLNKLFQLPTPPLSRHQLKRLEEHRYQSAGRSLLEPLMQGYWEWLVRRVPSWIAPNLITIIGLSINICTTILLVFYCPTATEQAPLWAYIACACGLFIYQSLDAIDGKQARRTNSSSPLGELFDHGCDSLSTVFVVLGTCIAVQLGTNPDWMFFCCFAGTFMFYCAHWQTYVSGTLRFGIIDVTEVQIFIIIMHLLAVIGGPPFWQSMIPVLNIQMKIFPALCTVAGTIFSCTNYFRVIFTGGVGKNGSTIAGTSVLSPFLHIGSVITLAAMIYKKSAVQLFEKHPCLYILTFGFVSAKITNKLVVAHMTKSEMHLHDTAFIGPALLFLDQYFNSFIDEYIVLWIALVFSFFDLIRYCVSVCNQIASHLHIHVFRIKVSTAHSNHH | 1 | 1 | – | – | – | – |
| CPS1 (protein, UniProt P31327 39-1500, looked up) Carbamoyl-phosphate synthase …: LSVKAQTAHIVLEDGTKMKGYSFGHPSSVAGEVVFNTGLGGYPEAITDPAYKGQILTMANPIIGNGGAPDTTALDELGLSKYLESNGIKVSGLLVLDYSKDYNHWLATKSLGQWLQEEKVPAIYGVDTRMLTKIIRDKGTMLGKIEFEGQPVDFVDPNKQNLIAEVSTKDVKVYGKGNPTKVVAVDCGIKNNVIRLLVKRGAEVHLVPWNHDFTKMEYDGILIAGGPGNPALAEPLIQNVRKILESDRKEPLFGISTGNLITGLAAGAKTYKMSMANRGQNQPVLNITNKQAFITAQNHGYALDNTLPAGWKPLFVNVNDQTNEGIMHESKPFFAVQFHPEVTPGPIDTEYLFDSFFSLIKKGKATTITSVLPKPALVASRVEVSKVLILGSGGLSIGQAGEFDYSGSQAVKAMKEENVKTVLMNPNIASVQTNEVGLKQADTVYFLPITPQFVTEVIKAEQPDGLILGMGGQTALNCGVELFKRGVLKEYGVKVLGTSVESIMATEDRQLFSDKLNEINEKIAPSFAVESIEDALKAADTIGYPVMIRSAYALGGLGSGICPNRETLMDLSTKAFAMTNQILVEKSVTGWKEIEYEVVRDADDNCVTVCNMENVDAMGVHTGDSVVVAPAQTLSNAEFQMLRRTSINVVRHLGIVGECNIQFALHPTSMEYCIIEVNARLSRSSALASKATGYPLAFIAAKIALGIPLPEIKNVVSGKTSACFEPSLDYMVTKIPRWDLDRFHGTSSRIGSSMKSVGEVMAIGRTFEESFQKALRMCHPSIEGFTPRLPMNKEWPSNLDLRKELSEPSSTRIYAIAKAIDDNMSLDEIEKLTYIDKWFLYKMRDILNMEKTLKGLNSESMTEETLKRAKEIGFSDKQISKCLGLTEAQTRELRLKKNIHPWVKQIDTLAAEYPSVTNYLYVTYNGQEHDVNFDDHGMMVLGCGPYHIGSSVEFDWCAVSSIRTLRQLGKKTVVVNCNPETVSTDFDECDKLYFEELSLERILDIYHQEACGGCIISVGGQIPNNLAVPLYKNGVKIMGTSPLQIDRAEDRSIFSAVLDELKVAQAPWKAVNTLNEALEFAKSVDYPCLLRPSYVLSGSAMNVVFSEDEMKKFLEEATRVSQEHPVVLTKFVEGAREVEMDAVGKDGRVISHAISEHVEDAGVHSGDATLMLPTQTISQGAIEKVKDATRKIAKAFAISGPFNVQFLVKGNDVLVIECNLRASRSFPFVSKTLGVDFIDVATKVMIGENVDEKHLPTLDHPIIPADYVAIKAPMFSWPRLRDADPILRCEMASTGEVACFGEGIHTAFLKAMLSTGFKIPQKGILIGIQQSFRPRFLGVAEQLHNEGFKLFATEATSDWLNANNVPATPVAWPSQEGQNPSLSSIRKLIRDGSIDLVINLPNNNTKFVHDNYVIRRTAVDSGIPLLTNFQVTKLFAEAVQKSRKVDSKSLFHYRQYSAGKAA | 1 | 1 | – | – | – | – |
| TCP11L2 (protein, UniProt Q8N4U5 1-519, looked up) T-complex protein 11-like …: MPFNGEKQCVGEDQPSDSDSSRFSESMASLSDYECSRQSFASDSSSKSSSPASTSPPRVVTFDEVMATARNLSNLTLAHEIAVNENFQLKQEALPEKSLAGRVKHIVHQAFWDVLDSELNADPPEFEHAIKLFEEIREILLSFLTPGGNRLRNQICEVLDTDLIRQQAEHSAVDIQGLANYVISTMGKLCAPVRDNDIRELKATGNIVEVLRQIFHVLDLMQMDMANFTIMSLRPHLQRQLVEYERTKFQEILEETPSALDQTTEWIKESVNEELFSLSESALTPGAENTSKPSLSPTLVLNNSYLKLLQWDYQKKELPETLMTDGARLQELTEKLNQLKIIACLSLITNNMVGAITGGLPELASRLTRISAVLLEGMNKETFNLKEVLNSIGIQTCVEVNKTLMERGLPTLNAEIQANLIGQFSSIEEEDNPIWSLIDKRIKLYMRRLLCLPSPQKCMPPMPGGLAVIQQELEALGSQYANIVNLNKQVYGPFYANILRKLLFNEEAMGKVDASPPTN | 1 | 1 | 1 | 1 | – | – |
| SLC25A33 (protein, UniProt Q9BSK2 1-321, looked up) Solute carrier family 25 …: MATGGQQKENTLLHLFAGGCGGTVGAIFTCPLEVIKTRLQSSRLALRTVYYPQVHLGTISGAGMVRPTSVTPGLFQVLKSILEKEGPKSLFRGLGPNLVGVAPSRAVYFACYSKAKEQFNGIFVPNSNIVHIFSAGSAAFITNSLMNPIWMVKTRMQLEQKVRGSKQMNTLQCARYVYQTEGIRGFYRGLTASYAGISETIICFAIYESLKKYLKEAPLASSANGTEKNSTSFFGLMAAAALSKGCASCIAYPHEVIRTRLREEGTKYKSFVQTARLVFREEGYLAFYRGLFAQLIRQIPNTAIVLSTYELIVYLLEDRTQ | 1 | 1 | – | – | – | – |
| SFXN4 (protein, UniProt Q6P4A7 2-337, looked up) Sideroflexin-4: SLEQEEETQPGRLLGRRDAVPAFIEPNVRFWITERQSFIRRFLQWTELLDPTNVFISVESIENSRQLLCTNEDVSSPASADQRIQEAWKRSLATVHPDSSNLIPKLFRPAAFLPFMAPTVFLSMTPLKGIKSVILPQVFLCAYMAAFNSINGNRSYTCKPLERSLLMAGAVASSTFLGVIPQFVQMKYGLTGPWIKRLLPVIFLVQASGMNVYMSRSLESIKGIAVMDKEGNVLGHSRIAGTKAVRETLASRIVLFGTSALIPEVFTYFFKRTQYFRKNPGSLWILKLSCTVLAMGLMVPFSFSIFPQIGQIQYCSLEEKIQSPTEETEIFYHRGV | 1 | 1 | – | – | 5 | 5 |
| SLC39A14 (protein, UniProt Q15043 31-492, looked up) Metal cation symporter ZIP14: SSLGAPAISAASFLQDLIHRYGEGDSLTLQQLKALLNHLDVGVGRGNVTQHVQGHRNLSTCFSSGDLFTAHNFSEQSRIGSSELQEFCPTILQQLDSRACTSENQENEENEQTEEGRPSAVEVWGYGLLCVTVISLCSLLGASVVPFMKKTFYKRLLLYFIALAIGTLYSNALFQLIPEAFGFNPLEDYYVSKSAVVFGGFYLFFFTEKILKILLKQKNEHHHGHSHYASESLPSKKDQEEGVMEKLQNGDLDHMIPQHCSSELDGKAPMVDEKVIVGSLSVQDLQASQSACYWLKGVRYSDIGTLAWMITLSDGLHNFIDGLAIGASFTVSVFQGISTSVAILCEEFPHELGDFVILLNAGMSIQQALFFNFLSACCCYLGLAFGILAGSHFSANWIFALAGGMFLYISLADMFPEMNEVCQEDERKGSILIPFIIQNLGLLTGFTIMVVLTMYSGQIQIG | 1 | 1 | – | – | – | – |
| LPCAT4 (protein, UniProt Q643R3 1-524, looked up) Lysophospholipid …: MSQGSPGDWAPLDPTPGPPASPNPFVHELHLSRLQRVKFCLLGALLAPIRVLLAFIVLFLLWPFAWLQVAGLSEEQLQEPITGWRKTVCHNGVLGLSRLLFFLLGFLRIRVRGQRASRLQAPVLVAAPHSTFFDPIVLLPCDLPKVVSRAENLSVPVIGALLRFNQAILVSRHDPASRRRVVEEVRRRATSGGKWPQVLFFPEGTCSNKKALLKFKPGAFIAGVPVQPVLIRYPNSLDTTSWAWRGPGVLKVLWLTASQPCSIVDVEFLPVYHPSPEESRDPTLYANNVQRVMAQALGIPATECEFVGSLPVIVVGRLKVALEPQLWELGKVLRKAGLSAGYVDAGAEPGRSRMISQEEFARQLQLSDPQTVAGAFGYFQQDTKGLVDFRDVALALAALDGGRSLEELTRLAFELFAEEQAEGPNRLLYKDGFSTILHLLLGSPHPAATALHAELCQAGSSQGLSLCQFQNFSLHDPLYGKLFSTYLRPPHTSRGTSQTPNASSPGNPTALANGTVQAPKQKGD | 1 | 1 | – | – | – | – |

— patent US20250283871A1, “COMPOSITIONS AND METHODS FOR MODULATING THE INTERACTION BETWEEN SS18-SSX FUSION ONCOPROTEIN AND NUCLEOSOMES” (Dana-Farber Cancer Institute, Inc., priority 2020, published 2025)
